Measured values: US20240158785A1 (Chugai, published 2024)
These are yes or no findings as the source states them, for the method shown. Some entries that bind do so weakly or less than the wild type.

T1: human IL-6 receptor (human, UniProt P08887 20-357, limits assumed, biotin-labeled in the ELISA and Octet assays (position not given))
T1 construct: also called hIL-6R; biotin-labeled hIL-6R
T1 sequence: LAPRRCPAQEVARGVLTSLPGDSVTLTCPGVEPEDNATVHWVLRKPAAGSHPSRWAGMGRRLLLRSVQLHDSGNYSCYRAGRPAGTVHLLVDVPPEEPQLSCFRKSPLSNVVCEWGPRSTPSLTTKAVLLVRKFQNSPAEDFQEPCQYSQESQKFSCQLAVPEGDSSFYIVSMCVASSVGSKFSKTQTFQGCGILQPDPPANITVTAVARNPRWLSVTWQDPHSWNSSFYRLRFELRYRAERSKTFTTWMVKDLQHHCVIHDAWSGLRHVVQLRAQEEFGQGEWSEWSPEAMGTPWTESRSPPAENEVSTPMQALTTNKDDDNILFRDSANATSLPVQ


Assays:
[1] = biological target: T1, human IL-6 receptor; assay: phage ELISA: biotin-labeled human IL-6 receptor on a streptavidin plate, purified Fab-displaying phage, HRP anti-M13 antibody, absorbance 450 nm; with or without 10 mM ATP and adenosine
[2] = biological target: T1, human IL-6 receptor; assay: phage ELISA (Fab on phage), biotin-labeled antigen, without ATP and adenosine

| binding [1] | binding [2] | Binder |
| --- | --- | --- |
| binds | binds | 6RRLSA1-6_045 (Fab, V domains shown) VH: EVQLVESGGDLVKPGGGLRLSCAASGFTFSGYTMHWVRQAPGKGLEWVSSISSRSNHRSYADSVKGRFTISRDNAKNSLYLQMNSLRAEDTAVYYCARFGKRFDRNWVFDYWGQGTLVTVSS VL: QSALTQPPSASGSPGQTVTISCTGTSTDVGTYNYVSWYQQHPGKAPKLMIYKTSKRPSGVPDRFSGSKSGNTASLTVSGLQAEDEADYFCSSRRYRRSLSFGGGTKLTVL |
| binds | binds | 6RRLSA1-6_037 (Fab, V domains shown) VH: EVQLVESGGDLVKPGGGLRLSCAASGFTFSTYTMHWVRQAPGKGLEWVSSISSRSGHRHYADSVKGRFTISRDNAKNSLYLQMNSLRAEDTAVYYCARYGKKGNRNWVFDYWGQGTLVTVSS VL: QSALTQPPSASGSPGQTVTISCTGTSTDVGGYNYVSWYQQHPGKAPKLMIYSTSKRPSGVPDRFSGSKSGNTASLTVSGLQAEDEADYFCSTTTYAKNPVFGGGTKLTVL |
